{"source": "paper PMC4642954", "binders": {"B1": {"name": "FLAG-Kirrel3 on CHO cells (protein, UniProt Q8BR86 22-778)", "chain": "LQKRGCCLVLGYMAKDKFRRMNEGQVYSFSQQPQDQVVVSGQPVTLLCAIPEYDGFVLWIKDGLALGVGRDLSSYPQYLVVGNHLSGEHHLKILRAELQDDAVYECQAIQAAIRSRPARLTVLVPPDDPIILGGPVISLRAGDPLNLTCHADNAKPAASIIWLRKGEVINGATYSKTLLRDGKRESIVSTLFISPGDVENGQSIVCRATNKAIPGGKETSVTIDIQHPPLVNLSVEPQPVLEDNIVTFHCSAKANPAVTQYRWAKRGHIIKEASGELYRTTVDYTYFSEPVSCEVTNALGSTNLSRTVDVYFGPRMTSEPQSLLVDLGSDAVFSCAWIGNPSLTIVWMKRGSGVVLSNEKTLTLKSVRQEDAGKYVCRAVVPRVGAGEREVTLTVNGPPIISSTQTQHALHGEKGQIKCFIRSTPPPDRIAWSWKENVLESGTSGRYTVETVNTEEGVISTLTISNIVRADFQTIYNCTAWNSFGSDTEIIRLKEQGSEMKSGAGLEAESVPMAVIIGVAVGAGVAFLVLMATIVAFCCARSQRNLKGVVSAKNDIRVEIVHKEPSSGREAEDHTTIKQLMMDRGEFQQDSVLKQLEVLKEEEKEFQNLKDPTNGYYSVNTFKEHHSTPTISLSSCQPDLRPTGKQRVPTGMSFTNIYSTLSGQGRLYDYGQRFVLGMGSSSIELCEREFQRGSLSDSSSFLDTQCDSSVSSSGKQDGYVQFDKASKASASSSHHSQSSSQNSDPSRPLQRRMQTHV"}}, "molecular_target": "FLAG-Kirrel3 on CHO cells (UniProt Q8BR86)", "assay": "cell aggregation assay; CHO cells co-transfected with FLAG-Kirrel3 and GFP, detached with 0.01% trypsin in HMF buffer (1 mM CaCl2, pH 7.4), 100,000 cells a well, nutator 90 min at 37°C, fixed and imaged; aggregation index from GFP fluorescence", "note": "These are yes or no findings as the source states them, for the method shown. Some binding calls cover weakened binding; strength is not graded here. Tags and fused reporters may be left off the sequences shown."}
{"binder": "B1", "values": [{"measurement": "binding", "result": "binds"}]}
